According to US20210079060A1:
No constants are given. Whether binding was seen depends on the method and setting. Some results given as binding are weak or reduced against the parent protein; the word gives no strength. Sequences can lack the tags named with a protein.

By UniProt entry, the sequences of proteins in these tests, tags left out.
UniProt Q5QGZ9: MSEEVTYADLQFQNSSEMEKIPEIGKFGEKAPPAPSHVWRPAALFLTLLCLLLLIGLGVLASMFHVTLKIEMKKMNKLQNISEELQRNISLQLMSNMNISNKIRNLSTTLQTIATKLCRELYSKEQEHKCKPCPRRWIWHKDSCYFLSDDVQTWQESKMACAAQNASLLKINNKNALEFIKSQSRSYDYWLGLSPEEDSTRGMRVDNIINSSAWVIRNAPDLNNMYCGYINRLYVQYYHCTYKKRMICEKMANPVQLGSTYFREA

Tests used:
Clec12A (human) [1] = target: Clec12A (human) (UniProt Q5QGZ9); assay: binding to U937 cells, % Binding against ul sup used /test/100ul
Clec12A (human) [2] = target: Clec12A (human) (UniProt Q5QGZ9); assay: binding to U937 cells
Clec12A (human) [3] = target: Clec12A (human) (UniProt Q5QGZ9); assay: binding to Clec12A expressing U937 cells

| binding (Clec12A (human) [1]) | binding (Clec12A (human) [2]) | Binder | binding (Clec12A (human) [3]) |
| --- | --- | --- | --- |
| binds | binds | CD19 mutant #2-G4Sx4-anti CLEC12a VHH 2H3-myc-His (VHH) PEEPLVVKVEEGDTAVLPCLKGTSDGPTQQLTWSRESPLKPFLKYSLGVPGLGVHVRPDAISVVIRNVSQQMGGFYLCQPGPPSEKAWQPGWTVNVEGSGELFRWNVSDLGGLGCGLKNRSSEGPSSPSGKLMSPKLYVWAKDRPEIWEGEPPCLPPRDSLNQSLSQDLTMAPGSTLWLSCGVPPDSVSRGPLSWTHVHPKGPKSLLSLELKDDRPAREMIVDETGLLLPRATAQDAGKWYCSRGNVTTSYHLEITARPVKAHSDLRTGGWKGGGGSGGGGSGGGGSGGGGSQVQLQESGGGLVQAGGSLRLSCVASGSIRSINVMGWYRQAPGKQRELVAACASDGNTYYADSVKGRFTISRDNAEKTVYLQMNNLKPDDTAVYYCDANSRGNYYSGQGTQVTVSSTSGPGGQGAEQKLISEEDLGAHHHHHHGAS | – |
| binds | binds | CD19 mutant #2-G4Sx4-anti CLEC12a VHH 2F3-myc-His (VHH) PEEPLVVKVEEGDTAVLPCLKGTSDGPTQQLTWSRESPLKPFLKYSLGVPGLGVHVRPDAISVVIRNVSQQMGGFYLCQPGPPSEKAWQPGWTVNVEGSGELFRWNVSDLGGLGCGLKNRSSEGPSSPSGKLMSPKLYVWAKDRPEIWEGEPPCLPPRDSLNQSLSQDLTMAPGSTLWLSCGVPPDSVSRGPLSWTHVHPKGPKSLLSLELKDDRPAREMIVDETGLLLPRATAQDAGKWYCSRGNVTTSYHLEITARPVKAHSDLRTGGWKGGGGSGGGGSGGGGSGGGGSQVQLQAFGGGLVQPGGSLRLSCVVSGTMFSGKDVNWLRQAPGKHVEVVATVSSDGGTDYADFVKGRFTISRDDAKNTVNLQMNSLEPEDTANYMCHFLWGRHYWGQGTQVTVSSTSGPGGQGAEQKLISEEDLGAHHHHHHGAS | – |
| binds | binds | CD19 mutant #2-G4Sx4-anti CLEC12a VHH 1G6-myc-His (VHH) PEEPLVVKVEEGDTAVLPCLKGTSDGPTQQLTWSRESPLKPFLKYSLGVPGLGVHVRPDAISVVIRNVSQQMGGFYLCQPGPPSEKAWQPGWTVNVEGSGELFRWNVSDLGGLGCGLKNRSSEGPSSPSGKLMSPKLYVWAKDRPEIWEGEPPCLPPRDSLNQSLSQDLTMAPGSTLWLSCGVPPDSVSRGPLSWTHVHPKGPKSLLSLELKDDRPAREMIVDETGLLLPRATAQDAGKWYCSRGNVTTSYHLEITARPVKAHSDLRTGGWKGGGGSGGGGSGGGGSGGGGSQVQLQQSGGGLVQAGGSLRLSCAASGSIFAINEINLMGWYRQAPGKQRELVAACASDGNTYYADSVKGRFTISRDNAEKTVYLQMNNLKPDDTAVYYCDANSRGNYYSGQGTQVTVSSTSGPGGQGAEQKLISEEDLGAHHHHHHGAS | – |
| binds | binds | CD19 mutant #2-G4Sx4-anti CLEC12a VHH 2F5-myc-His (VHH) PEEPLVVKVEEGDTAVLPCLKGTSDGPTQQLTWSRESPLKPFLKYSLGVPGLGVHVRPDAISVVIRNVSQQMGGFYLCQPGPPSEKAWQPGWTVNVEGSGELFRWNVSDLGGLGCGLKNRSSEGPSSPSGKLMSPKLYVWAKDRPEIWEGEPPCLPPRDSLNQSLSQDLTMAPGSTLWLSCGVPPDSVSRGPLSWTHVHPKGPKSLLSLELKDDRPAREMIVDETGLLLPRATAQDAGKWYCSRGNVTTSYHLEITARPVKAHSDLRTGGWKGGGGSGGGGSGGGGSGGGGSQVQLQQSGGGLAQTGGSLILSCAASGSIFAINEINLMGWYRQAPGKQRELVAACASDGNTYYADSVKGRFTISRDNAEKTVYLQMNNLKPDDTAVYYCDANSRGNYYSGQGTQVTVSSTSGPGGQGAEQKLISEEDLGAHHHHHHGAS | – |
| – | – | CD19 ECD N term mutant #2-G4Sx4-anti CLEC12a VHH 1B12-His (VHH) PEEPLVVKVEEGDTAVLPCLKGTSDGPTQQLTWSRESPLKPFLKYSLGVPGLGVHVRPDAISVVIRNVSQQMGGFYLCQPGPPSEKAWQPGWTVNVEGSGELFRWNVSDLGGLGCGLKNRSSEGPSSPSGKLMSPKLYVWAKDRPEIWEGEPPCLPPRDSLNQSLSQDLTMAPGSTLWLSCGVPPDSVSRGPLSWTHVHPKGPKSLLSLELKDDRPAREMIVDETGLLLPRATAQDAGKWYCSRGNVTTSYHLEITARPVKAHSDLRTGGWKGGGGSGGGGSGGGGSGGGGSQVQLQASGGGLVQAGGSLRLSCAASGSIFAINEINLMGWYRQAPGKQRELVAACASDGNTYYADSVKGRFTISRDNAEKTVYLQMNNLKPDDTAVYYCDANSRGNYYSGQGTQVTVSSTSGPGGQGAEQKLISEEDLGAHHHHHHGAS | binds |
